Some of the results follow. Hit calls seldom repeat between salt and free forms of one compound.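 In K562 cells expressing nanoluciferase-fused kinases, luminescence was recorded at 4 h intervals between 2 and 18 h, normalized as percent of control with DMSO at 100% and a positive control at 0%. A significant (2 sigma) signal drop marks a time point as decreased. The authors' rule for a hit is not shown and takes in more than the number of time points.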
What was measured:
Test in all cases: kinase-Nluc reporter destabilization hit call (1 = scored as downregulated) (binary); higher = compound decreases kinase abundance
Conditions in all cases: K562; 2-18 h
[1] = target: ERN1 (UniProt O75460)
[2] = target: FGFR1 (UniProt P11362)
[3] = target: FGFR2 (UniProt P21802)
[4] = target: FGFR3 (UniProt P22607)
[5] = target: FGR (UniProt P09769)
[6] = target: FLT3 (UniProt P36888)
[7] = target: FYN (UniProt P06241)
[8] = target: GSK3A (UniProt P49840)
[9] = target: HER2 (UniProt P04626)
[10] = target: INSRR (UniProt P14616)
[11] = target: IRAK3 (UniProt Q9Y616)
[12] = target: JAK1 (UniProt P23458)
[13] = target: LCK (UniProt P06239)
[14] = target: LIMK1 (UniProt P53667)
[15] = target: LIMK2 (UniProt P53671)
[16] = target: LMTK2 (UniProt Q8IWU2)
[17] = target: LYN (UniProt P07948)
[18] = target: MAP2K1 (UniProt Q02750)
[19] = target: MAP2K2 (UniProt P36507)
[20] = target: MAP4K2 (UniProt Q12851)

Chains of the proteins cited; added tags and fusions are not shown. Lines headed by an entry give the natural chain unless they say otherwise; changes in a name come on top.
UniProt P11362, whole entry, looked up: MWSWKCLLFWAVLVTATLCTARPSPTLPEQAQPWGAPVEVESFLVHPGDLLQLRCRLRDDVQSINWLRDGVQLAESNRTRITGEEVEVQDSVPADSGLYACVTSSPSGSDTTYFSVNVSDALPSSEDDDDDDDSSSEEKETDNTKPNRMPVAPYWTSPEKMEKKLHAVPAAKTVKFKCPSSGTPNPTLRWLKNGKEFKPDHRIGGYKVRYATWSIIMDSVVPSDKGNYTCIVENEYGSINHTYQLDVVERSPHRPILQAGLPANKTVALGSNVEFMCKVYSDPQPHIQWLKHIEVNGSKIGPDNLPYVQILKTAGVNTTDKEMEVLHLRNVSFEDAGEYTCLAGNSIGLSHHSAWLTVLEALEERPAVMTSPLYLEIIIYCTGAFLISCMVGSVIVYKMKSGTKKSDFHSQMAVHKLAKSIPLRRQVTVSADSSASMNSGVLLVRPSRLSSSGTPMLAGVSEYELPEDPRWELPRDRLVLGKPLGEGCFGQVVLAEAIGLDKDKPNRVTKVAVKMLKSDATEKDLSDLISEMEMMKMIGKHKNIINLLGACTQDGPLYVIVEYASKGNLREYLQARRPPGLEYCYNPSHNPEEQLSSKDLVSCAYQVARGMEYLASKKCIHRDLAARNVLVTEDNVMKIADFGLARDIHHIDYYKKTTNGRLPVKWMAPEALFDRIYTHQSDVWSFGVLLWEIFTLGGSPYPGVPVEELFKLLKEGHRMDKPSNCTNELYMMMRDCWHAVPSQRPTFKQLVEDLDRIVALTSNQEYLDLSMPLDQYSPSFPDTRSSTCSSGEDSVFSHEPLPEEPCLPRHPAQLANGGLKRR
UniProt P49840: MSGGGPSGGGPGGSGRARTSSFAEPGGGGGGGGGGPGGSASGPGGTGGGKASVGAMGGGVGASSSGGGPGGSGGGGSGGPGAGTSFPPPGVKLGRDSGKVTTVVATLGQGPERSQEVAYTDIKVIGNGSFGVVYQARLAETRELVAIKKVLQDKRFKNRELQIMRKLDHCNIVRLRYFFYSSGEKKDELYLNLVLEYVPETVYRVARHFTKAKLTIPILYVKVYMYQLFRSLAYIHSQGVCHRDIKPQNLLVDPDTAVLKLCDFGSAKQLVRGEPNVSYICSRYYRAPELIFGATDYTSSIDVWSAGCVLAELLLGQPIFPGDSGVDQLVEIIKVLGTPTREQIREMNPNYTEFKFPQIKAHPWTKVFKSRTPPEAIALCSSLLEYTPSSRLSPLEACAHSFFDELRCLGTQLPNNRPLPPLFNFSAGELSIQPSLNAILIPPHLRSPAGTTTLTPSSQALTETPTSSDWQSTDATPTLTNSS
UniProt P23458: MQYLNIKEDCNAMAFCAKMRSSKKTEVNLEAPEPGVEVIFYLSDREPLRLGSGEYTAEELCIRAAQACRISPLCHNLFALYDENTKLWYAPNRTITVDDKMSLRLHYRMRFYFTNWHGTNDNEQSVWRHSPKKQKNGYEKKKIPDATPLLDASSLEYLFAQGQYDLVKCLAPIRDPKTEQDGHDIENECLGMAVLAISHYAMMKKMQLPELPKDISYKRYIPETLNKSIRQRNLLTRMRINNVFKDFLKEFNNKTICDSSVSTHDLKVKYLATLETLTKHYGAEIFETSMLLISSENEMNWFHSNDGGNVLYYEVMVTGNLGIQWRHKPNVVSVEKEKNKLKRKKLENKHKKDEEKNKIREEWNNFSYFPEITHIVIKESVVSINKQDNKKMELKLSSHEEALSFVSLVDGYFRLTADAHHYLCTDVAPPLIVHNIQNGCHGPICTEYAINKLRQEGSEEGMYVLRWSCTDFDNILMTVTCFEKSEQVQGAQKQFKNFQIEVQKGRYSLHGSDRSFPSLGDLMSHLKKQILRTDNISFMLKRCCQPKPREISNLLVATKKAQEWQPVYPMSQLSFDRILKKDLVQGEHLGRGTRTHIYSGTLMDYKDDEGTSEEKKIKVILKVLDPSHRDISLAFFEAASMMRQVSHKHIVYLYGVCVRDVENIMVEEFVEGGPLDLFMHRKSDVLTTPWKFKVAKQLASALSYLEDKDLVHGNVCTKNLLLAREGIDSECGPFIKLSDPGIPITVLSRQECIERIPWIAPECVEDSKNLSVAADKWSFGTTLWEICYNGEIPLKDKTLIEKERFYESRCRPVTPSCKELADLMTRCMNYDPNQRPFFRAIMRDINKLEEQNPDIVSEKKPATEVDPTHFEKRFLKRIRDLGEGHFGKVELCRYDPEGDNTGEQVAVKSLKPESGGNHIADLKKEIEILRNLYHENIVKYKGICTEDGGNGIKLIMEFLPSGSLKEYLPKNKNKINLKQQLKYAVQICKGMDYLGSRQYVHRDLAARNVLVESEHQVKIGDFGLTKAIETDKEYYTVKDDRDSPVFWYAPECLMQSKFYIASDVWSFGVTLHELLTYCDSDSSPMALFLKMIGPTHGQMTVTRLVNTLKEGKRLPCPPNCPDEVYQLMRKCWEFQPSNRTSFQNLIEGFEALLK
UniProt P06239: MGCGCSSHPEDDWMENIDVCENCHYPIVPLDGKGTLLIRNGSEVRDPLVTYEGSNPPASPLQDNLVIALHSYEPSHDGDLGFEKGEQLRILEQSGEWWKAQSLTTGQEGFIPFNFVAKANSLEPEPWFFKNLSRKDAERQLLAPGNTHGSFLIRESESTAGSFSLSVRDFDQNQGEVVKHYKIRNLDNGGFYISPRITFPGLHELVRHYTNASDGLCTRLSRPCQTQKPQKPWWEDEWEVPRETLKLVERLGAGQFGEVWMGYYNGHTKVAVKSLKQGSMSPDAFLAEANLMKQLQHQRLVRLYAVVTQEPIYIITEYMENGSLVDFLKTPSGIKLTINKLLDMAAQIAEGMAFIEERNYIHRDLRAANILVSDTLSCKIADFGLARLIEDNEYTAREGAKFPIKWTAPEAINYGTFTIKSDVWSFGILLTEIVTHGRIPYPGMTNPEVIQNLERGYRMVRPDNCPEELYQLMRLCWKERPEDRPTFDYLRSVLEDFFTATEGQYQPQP
UniProt P53667: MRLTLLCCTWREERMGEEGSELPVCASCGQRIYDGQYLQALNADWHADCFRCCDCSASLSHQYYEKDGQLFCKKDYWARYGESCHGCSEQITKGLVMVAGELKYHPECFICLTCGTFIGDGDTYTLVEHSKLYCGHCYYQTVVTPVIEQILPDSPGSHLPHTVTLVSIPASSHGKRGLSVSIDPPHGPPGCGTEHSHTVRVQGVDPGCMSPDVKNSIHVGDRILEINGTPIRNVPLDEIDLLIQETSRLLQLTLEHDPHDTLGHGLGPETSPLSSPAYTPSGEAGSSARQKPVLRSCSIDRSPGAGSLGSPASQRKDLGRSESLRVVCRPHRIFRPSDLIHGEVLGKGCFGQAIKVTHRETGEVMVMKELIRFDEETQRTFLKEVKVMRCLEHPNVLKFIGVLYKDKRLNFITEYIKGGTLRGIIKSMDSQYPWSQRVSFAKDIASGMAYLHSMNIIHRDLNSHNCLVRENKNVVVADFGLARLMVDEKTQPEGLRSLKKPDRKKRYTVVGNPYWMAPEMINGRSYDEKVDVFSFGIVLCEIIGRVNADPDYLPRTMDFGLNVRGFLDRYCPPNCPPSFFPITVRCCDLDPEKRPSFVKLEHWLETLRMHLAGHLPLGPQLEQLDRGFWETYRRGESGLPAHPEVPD
UniProt Q8IWU2: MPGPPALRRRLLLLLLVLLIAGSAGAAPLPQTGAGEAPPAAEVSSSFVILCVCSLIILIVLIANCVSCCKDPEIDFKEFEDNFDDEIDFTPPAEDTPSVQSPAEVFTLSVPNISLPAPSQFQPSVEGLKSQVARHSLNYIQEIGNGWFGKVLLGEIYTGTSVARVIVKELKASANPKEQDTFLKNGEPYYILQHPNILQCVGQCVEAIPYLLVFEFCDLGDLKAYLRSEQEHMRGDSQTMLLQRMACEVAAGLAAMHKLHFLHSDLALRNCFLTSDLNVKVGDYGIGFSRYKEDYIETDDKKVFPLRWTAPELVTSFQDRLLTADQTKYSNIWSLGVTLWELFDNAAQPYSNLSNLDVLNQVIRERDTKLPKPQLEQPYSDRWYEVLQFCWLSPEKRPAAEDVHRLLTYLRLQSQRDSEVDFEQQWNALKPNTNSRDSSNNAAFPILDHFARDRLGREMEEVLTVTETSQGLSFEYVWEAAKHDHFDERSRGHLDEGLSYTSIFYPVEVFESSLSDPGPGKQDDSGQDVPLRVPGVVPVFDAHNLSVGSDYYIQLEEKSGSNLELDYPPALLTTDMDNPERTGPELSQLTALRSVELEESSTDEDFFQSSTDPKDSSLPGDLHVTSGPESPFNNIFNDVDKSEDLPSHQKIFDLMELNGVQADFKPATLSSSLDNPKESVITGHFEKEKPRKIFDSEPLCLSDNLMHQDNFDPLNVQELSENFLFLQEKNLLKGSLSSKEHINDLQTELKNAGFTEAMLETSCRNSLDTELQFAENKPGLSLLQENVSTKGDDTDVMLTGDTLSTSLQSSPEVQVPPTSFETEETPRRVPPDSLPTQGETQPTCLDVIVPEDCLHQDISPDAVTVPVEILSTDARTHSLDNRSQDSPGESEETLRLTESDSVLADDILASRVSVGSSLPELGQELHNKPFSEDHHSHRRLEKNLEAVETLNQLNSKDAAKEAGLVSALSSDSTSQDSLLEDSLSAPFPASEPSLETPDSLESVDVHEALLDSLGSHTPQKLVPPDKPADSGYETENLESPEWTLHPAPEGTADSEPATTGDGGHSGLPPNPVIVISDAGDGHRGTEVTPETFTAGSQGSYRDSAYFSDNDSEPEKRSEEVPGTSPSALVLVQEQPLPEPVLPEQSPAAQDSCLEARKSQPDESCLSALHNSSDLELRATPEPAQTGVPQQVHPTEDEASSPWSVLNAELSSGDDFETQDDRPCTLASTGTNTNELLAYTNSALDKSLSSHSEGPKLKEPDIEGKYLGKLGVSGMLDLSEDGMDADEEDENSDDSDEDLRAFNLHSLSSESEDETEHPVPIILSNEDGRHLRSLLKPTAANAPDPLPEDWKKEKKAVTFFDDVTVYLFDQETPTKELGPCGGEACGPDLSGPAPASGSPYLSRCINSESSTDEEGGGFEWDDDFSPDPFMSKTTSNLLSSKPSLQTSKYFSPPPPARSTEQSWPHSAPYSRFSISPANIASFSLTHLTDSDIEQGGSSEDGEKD
UniProt P07948: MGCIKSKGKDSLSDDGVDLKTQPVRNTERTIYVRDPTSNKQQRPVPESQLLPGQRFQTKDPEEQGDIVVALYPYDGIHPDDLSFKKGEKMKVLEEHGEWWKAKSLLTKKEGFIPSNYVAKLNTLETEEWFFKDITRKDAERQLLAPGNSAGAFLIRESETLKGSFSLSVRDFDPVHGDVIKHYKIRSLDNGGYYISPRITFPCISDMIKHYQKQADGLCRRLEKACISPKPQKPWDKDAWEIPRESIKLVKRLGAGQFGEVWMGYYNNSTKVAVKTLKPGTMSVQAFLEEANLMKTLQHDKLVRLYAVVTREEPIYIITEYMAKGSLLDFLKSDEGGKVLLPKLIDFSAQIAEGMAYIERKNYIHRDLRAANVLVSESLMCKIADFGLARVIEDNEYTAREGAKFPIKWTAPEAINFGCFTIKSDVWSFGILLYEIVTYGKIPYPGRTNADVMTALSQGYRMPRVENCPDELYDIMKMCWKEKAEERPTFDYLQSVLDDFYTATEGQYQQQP
UniProt Q12851: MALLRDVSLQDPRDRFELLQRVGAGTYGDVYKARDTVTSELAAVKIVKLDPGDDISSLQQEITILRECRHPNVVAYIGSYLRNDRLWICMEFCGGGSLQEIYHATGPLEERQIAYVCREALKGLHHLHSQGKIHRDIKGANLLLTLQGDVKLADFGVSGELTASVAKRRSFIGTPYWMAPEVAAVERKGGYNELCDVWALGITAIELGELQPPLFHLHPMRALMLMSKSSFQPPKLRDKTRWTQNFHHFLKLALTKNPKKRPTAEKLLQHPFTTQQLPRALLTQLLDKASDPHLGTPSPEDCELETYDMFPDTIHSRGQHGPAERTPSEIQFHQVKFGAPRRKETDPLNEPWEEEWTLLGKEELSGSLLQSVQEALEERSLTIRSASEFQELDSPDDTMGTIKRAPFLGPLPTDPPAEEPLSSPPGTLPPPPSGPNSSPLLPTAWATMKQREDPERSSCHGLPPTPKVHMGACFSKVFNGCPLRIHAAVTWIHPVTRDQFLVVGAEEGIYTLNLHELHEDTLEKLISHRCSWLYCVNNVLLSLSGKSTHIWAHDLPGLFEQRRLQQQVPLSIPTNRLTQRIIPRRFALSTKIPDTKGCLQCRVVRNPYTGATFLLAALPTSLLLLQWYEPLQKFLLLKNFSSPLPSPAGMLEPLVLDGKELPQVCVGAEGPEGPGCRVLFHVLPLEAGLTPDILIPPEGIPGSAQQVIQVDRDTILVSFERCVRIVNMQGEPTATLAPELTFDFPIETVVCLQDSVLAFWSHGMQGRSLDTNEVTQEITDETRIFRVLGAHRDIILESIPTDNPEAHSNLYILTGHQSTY

Measured: kinase-Nluc reporter destabilization hit call

O=C(O)[C@]1(Cc2cccc(Nc3nccs3)n2)CC[C@@H](Oc2cccc(Cl)c2F)CC1 (2.5 µM)
inactive: [1] 0 | [2] 0 | [3] 0 | [4] 0 | [5] 0 | [6] 0 | [7] 0 | [8] 0 | [9] 0 | [10] 0 | [11] 0 | [12] 0 | [13] 0 | [14] 0 | [15] 0 | [16] 0 | [17] 0 | [18] 0 | [19] 0 | [20] 0

CC(=O)NCC(=O)N[C@@H](C)C(=O)N[C@@H](CCC(N)=O)C(=O)N[C@@H](Cc1ccccc1)C(=O)N[C@@H](CO)C(=O)N[C@@H](CCCCN)C(=O)N[C@H](C(=O)N[C@@H](C)C(=O)N[C@@H](C)C(=O)N[C@@H](CCCCN)C(=O)O)[C@@H](C)O (10 µM)
inactive: [1] 0 | [2] 0 | [3] 0 | [4] 0 | [5] 0 | [6] 0 | [7] 0 | [8] 0 | [9] 0 | [10] 0 | [11] 0 | [12] 0 | [13] 0 | [14] 0 | [15] 0 | [16] 0 | [17] 0 | [18] 0 | [19] 0 | [20] 0

CN(C/C=C/C(=O)Nc1ccc(C(=O)Nc2cccc(Nc3ncc(Cl)c(-c4c[nH]c5ccccc45)n3)c2)cc1)CCCNC(=O)NCCOCCOCCOCCNC(=O)CCCC[C@@H]1SC[C@@H]2NC(=O)N[C@@H]21 (2.5 µM)
inactive: [1] 0 | [2] 0 | [3] 0 | [4] 0 | [5] 0 | [6] 0 | [7] 0 | [8] 0 | [9] 0 | [10] 0 | [11] 0 | [12] 0 | [13] 0 | [14] 0 | [15] 0 | [16] 0 | [17] 0 | [18] 0 | [19] 0 | [20] 0

CNC(=O)c1c(C)oc2cc(Oc3ncnc4cc(OC)c(OC)cc34)ccc12 [Fruquintinib] (10 µM)
inactive: [1] 0 | [2] 0 | [3] 0 | [4] 0 | [5] 0 | [6] 0 | [7] 0 | [8] 0 | [9] 0 | [10] 0 | [11] 0 | [12] 0 | [13] 0 | [14] 0 | [15] 0 | [16] 0 | [17] 0 | [18] 0 | [19] 0 | [20] 0

CC(=O)Nc1nc(C)c(-c2ccc(Cl)c(S(=O)(=O)NCCO)c2)s1 (10 µM)
inactive: [1] 0 | [2] 0 | [3] 0 | [4] 0 | [5] 0 | [6] 0 | [7] 0 | [8] 0 | [9] 0 | [10] 0 | [11] 0 | [12] 0 | [13] 0 | [14] 0 | [15] 0 | [16] 0 | [17] 0 | [18] 0 | [19] 0 | [20] 0

CNCCOc1ccccc1C(C)(C)Nc1nccn(-c2cc(C(=O)NC3CC3)ccc2C)c1=O [p38α inhibitor 2] (10 µM)
inactive: [1] 0 | [2] 0 | [3] 0 | [4] 0 | [5] 0 | [6] 0 | [7] 0 | [8] 0 | [9] 0 | [10] 0 | [11] 0 | [12] 0 | [13] 0 | [14] 0 | [15] 0 | [16] 0 | [17] 0 | [18] 0 | [19] 0 | [20] 0

C[C@H](CC[C@@H](O)C(C)(C)O)[C@H]1CC[C@@]2(C)[C@@H]3CC=C4[C@@H](CC[C@H](O)C4(C)C)[C@]3(C)[C@H](O)C[C@]12C [Mogrol] (10 µM)
inactive: [1] 0 | [2] 0 | [3] 0 | [4] 0 | [5] 0 | [6] 0 | [7] 0 | [8] 0 | [9] 0 | [10] 0 | [11] 0 | [12] 0 | [13] 0 | [14] 0 | [15] 0 | [16] 0 | [17] 0 | [18] 0 | [19] 0 | [20] 0

CC1=C(C(=O)Nc2ccc3[nH]ncc3c2)C(c2ccc(F)c(C(=O)NCc3ccccn3)c2)NC(=O)N1 (stereo not given) (10 µM)
inactive: [1] 0 | [2] 0 | [3] 0 | [4] 0 | [5] 0 | [6] 0 | [7] 0 | [8] 0 | [9] 0 | [10] 0 | [11] 0 | [12] 0 | [13] 0 | [14] 0 | [15] 0 | [16] 0 | [17] 0 | [18] 0 | [19] 0 | [20] 0

Oc1ccc2ccccc2c1SSc1c(O)ccc2ccccc12 (10 µM)
inactive: [1] 0 | [2] 0 | [3] 0 | [4] 0 | [5] 0 | [6] 0 | [7] 0 | [8] 0 | [9] 0 | [10] 0 | [11] 0 | [12] 0 | [13] 0 | [14] 0 | [15] 0 | [16] 0 | [17] 0 | [18] 0 | [19] 0 | [20] 0

COC(=O)/C=C/c1ccc(O)c(OC)c1 [Ferulic acid methyl ester] (10 µM)
inactive: [1] 0 | [2] 0 | [3] 0 | [4] 0 | [5] 0 | [6] 0 | [7] 0 | [8] 0 | [9] 0 | [10] 0 | [11] 0 | [12] 0 | [13] 0 | [14] 0 | [15] 0 | [16] 0 | [17] 0 | [18] 0 | [19] 0 | [20] 0

Cc1cccc(-c2[nH]c(C(C)(C)C)nc2-c2ccc3c(c2)OCO3)n1 (2.5 µM)
inactive: [1] 0 | [2] 0 | [3] 0 | [4] 0 | [5] 0 | [6] 0 | [7] 0 | [8] 0 | [9] 0 | [10] 0 | [11] 0 | [12] 0 | [13] 0 | [14] 0 | [15] 0 | [16] 0 | [17] 0 | [18] 0 | [19] 0 | [20] 0

O=C1NC(=O)C(c2ccccc2[N+](=O)[O-])=C1Nc1ccc(O)c(Cl)c1 (10 µM)
inactive: [1] 0 | [2] 0 | [3] 0 | [4] 0 | [5] 0 | [6] 0 | [7] 0 | [8] 0 | [9] 0 | [10] 0 | [11] 0 | [12] 0 | [13] 0 | [14] 0 | [15] 0 | [16] 0 | [17] 0 | [18] 0 | [19] 0 | [20] 0

Three compounds already listed, arranged by SMILES length, rising.
Oc1ccc2ccccc2c1SSc1c(O)ccc2ccccc12 (10 µM)
inactive: [1] 0 | [2] 0 | [3] 0 | [4] 0 | [5] 0 | [6] 0 | [7] 0 | [8] 0 | [9] 0 | [10] 0 | [11] 0 | [12] 0 | [13] 0 | [14] 0 | [15] 0 | [16] 0 | [17] 0 | [18] 0 | [19] 0 | [20] 0

Cc1cccc(-c2[nH]c(C(C)(C)C)nc2-c2ccc3c(c2)OCO3)n1 (2.5 µM)
inactive: [1] 0 | [2] 0 | [3] 0 | [4] 0 | [5] 0 | [6] 0 | [7] 0 | [8] 0 | [9] 0 | [10] 0 | [11] 0 | [12] 0 | [13] 0 | [14] 0 | [15] 0 | [16] 0 | [17] 0 | [18] 0 | [19] 0 | [20] 0

CC1=C(C(=O)Nc2ccc3[nH]ncc3c2)C(c2ccc(F)c(C(=O)NCc3ccccn3)c2)NC(=O)N1 (stereo not given) (10 µM)
inactive: [1] 0 | [2] 0 | [3] 0 | [4] 0 | [5] 0 | [6] 0 | [7] 0 | [8] 0 | [9] 0 | [10] 0 | [11] 0 | [12] 0 | [13] 0 | [14] 0 | [15] 0 | [16] 0 | [17] 0 | [18] 0 | [19] 0 | [20] 0

The list goes on.

O=C(O)/C=C/c1cc(Br)c(Br)c(Br)c1Br (10 µM)
inactive: [1] 0 | [2] 0 | [3] 0 | [4] 0 | [5] 0 | [6] 0 | [7] 0 | [8] 0 | [9] 0 | [10] 0 | [11] 0 | [12] 0 | [13] 0 | [14] 0 | [15] 0 | [16] 0 | [17] 0 | [18] 0 | [19] 0 | [20] 0

COc1cc2nccc(Oc3ccc(NC(=O)Nc4ccc(F)cc4F)c(F)c3)c2cc1OC (10 µM)
inactive: [1] 0 | [2] 0 | [3] 0 | [4] 0 | [5] 0 | [6] 0 | [7] 0 | [8] 0 | [9] 0 | [10] 0 | [11] 0 | [12] 0 | [13] 0 | [14] 0 | [15] 0 | [16] 0 | [17] 0 | [18] 0 | [19] 0 | [20] 0

CN(c1ccc(C(F)(F)F)cc1)S(=O)(=O)c1ccc(C(=O)Nc2nc(-c3ccccn3)cs2)cc1 (2.5 µM)
inactive: [1] 0 | [2] 0 | [3] 0 | [4] 0 | [5] 0 | [6] 0 | [7] 0 | [8] 0 | [9] 0 | [10] 0 | [11] 0 | [12] 0 | [13] 0 | [14] 0 | [15] 0 | [16] 0 | [17] 0 | [18] 0 | [19] 0 | [20] 0

O=C(Nc1nc2cccc(-c3ccc(CN4CCS(=O)(=O)CC4)cc3)n2n1)C1CC1 [Filgotinib] (2.5 µM)
inactive: [1] 0 | [2] 0 | [3] 0 | [4] 0 | [5] 0 | [6] 0 | [7] 0 | [8] 0 | [9] 0 | [10] 0 | [11] 0 | [12] 0 | [13] 0 | [14] 0 | [15] 0 | [16] 0 | [17] 0 | [18] 0 | [19] 0 | [20] 0

From the supplement of paper PMC12823440, “Inhibitors supercharge kinase turnover through native proteolytic circuits” (Nature, 2025)
